Results deposited as PubChem BioAssay AID504808 (Drosophila RNAi Screening Center, 2011)
Test: 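Chromatin factors that keep E2F targets switched off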 (primary screen). Cell system: Drosophila S2 cells. Reagents: long dsRNA against Drosophila genes. Measured: 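Dual luciferase plate measurements; E2F-specific signal taken as firefly over Renilla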. Direction: E2F firefly: higher = more E2F reporter activity; Renilla normaliser: higher = more normaliser reporter signal. Hit rule: 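Called active if the normalised E2F reporter went up by over 50%; the cutoff is arbitrary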.
The deposit covers about 21,000 reagents; shown is an unselected part of those that have a named target and a result. Over the whole deposit, 18 (0.084%) got an active call. 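Raw counts without plate normalisation, one of two replicates; the ratio scores behind the calls were not deposited.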 A number with no mark means an inactive call. Not given: the amount of reagent, the time to read-out.

For grnd (GeneID 35103) [DRSC02020], the entry reads E2F firefly, rep 1 = 1.04e5; Renilla normaliser, rep 1 = 4168.
After knock-down of PH4alphaSG1 (GeneID 326112) [DRSC15080] the results were E2F firefly, rep 1 = 1.28e5; Renilla normaliser, rep 1 = 6691.
Knock-down of FASN3 (GeneID 3355111) [DRSC20882] gave: E2F firefly, rep 1 = 1.25e5; Renilla normaliser, rep 1 = 7180.
CG17271 (GeneID 42463) [DRSC15210] gave E2F firefly, rep 1 = 1.37e5; Renilla normaliser, rep 1 = 7706.
Knock-down of Wdr62 (GeneID 33367) [DRSC00081] resulted in: E2F firefly, rep 1 = 1.34e5; Renilla normaliser, rep 1 = 5723.
After knock-down of Wdr62 (GeneID 33367) [DRSC00082] the results were E2F firefly, rep 1 = 1.35e5; Renilla normaliser, rep 1 = 5482.
Wdr62 (GeneID 33367) [DRSC00701] showed E2F firefly, rep 1 = 68610; Renilla normaliser, rep 1 = 2932.
With knock-down of CG5397 (GeneID 33313) [DRSC00683] the results were E2F firefly, rep 1 = 82163; Renilla normaliser, rep 1 = 3274.
For ppk23 (GeneID 32731) [DRSC20110], the values are E2F firefly, rep 1 = 1.49e5; Renilla normaliser, rep 1 = 6621.
blw (GeneID 37617) [DRSC04675] scored E2F firefly, rep 1 = 76532; Renilla normaliser, rep 1 = 3951.
Depletion of CG40006 (GeneID 3355123) [DRSC03787] gave: E2F firefly, rep 1 = 1.24e5; Renilla normaliser, rep 1 = 4558.
CG40006 (GeneID 3355123) [DRSC03809] scored E2F firefly, rep 1 = 1.37e5; Renilla normaliser, rep 1 = 4671.
CG40006 (GeneID 3355123) [DRSC03814] gave E2F firefly, rep 1 = 1.14e5; Renilla normaliser, rep 1 = 4221.
For CG40006 (GeneID 3355123) [DRSC03817], the entry reads E2F firefly, rep 1 = 1.20e5; Renilla normaliser, rep 1 = 4505.
Depletion of ox (GeneID 45401) [DRSC07520] came out at: E2F firefly, rep 1 = 97670; Renilla normaliser, rep 1 = 4162.
CG14341 (GeneID 33301) [DRSC00371] scored E2F firefly, rep 1 = 1.72e5; Renilla normaliser, rep 1 = 6968.
After knock-down of sub (GeneID 44870) [DRSC06125] the results were E2F firefly, rep 1 = 81039; Renilla normaliser, rep 1 = 3456.
With knock-down of CG12155 (GeneID 31682) [DRSC17826], the record shows E2F firefly, rep 1 = 7645; Renilla normaliser, rep 1 = 740.
I-2 (GeneID 39156) [DRSC11194] gave E2F firefly, rep 1 = 1.11e5; Renilla normaliser, rep 1 = 7600.
With knock-down of dpr12 (GeneID 50320) [DRSC04814] the results were E2F firefly, rep 1 = 1.18e5; Renilla normaliser, rep 1 = 5611.
With knock-down of dpr12 (GeneID 50320) [DRSC04863] the results were E2F firefly, rep 1 = 1.17e5; Renilla normaliser, rep 1 = 4887.
dpr12 (GeneID 50320) [DRSC04892] showed E2F firefly, rep 1 = 1.20e5; Renilla normaliser, rep 1 = 5025.
Against CG9692 (GeneID 39865) [DRSC11091] the deposit lists E2F firefly, rep 1 = 1.73e5; Renilla normaliser, rep 1 = 9013.
CG16935 (GeneID 36540) [DRSC06638] scored E2F firefly, rep 1 = 96146; Renilla normaliser, rep 1 = 4078.
After knock-down of CG10011 (GeneID 43387) [DRSC14174], the record shows E2F firefly, rep 1 = 1735; Renilla normaliser, rep 1 = 880.
For CG8272 (GeneID 35875) [DRSC07134] the deposit lists E2F firefly, rep 1 = 3293; Renilla normaliser, rep 1 = 331.
NHP2 (GeneID 44005) [DRSC11229] scored E2F firefly, rep 1 = 1.48e5; Renilla normaliser, rep 1 = 7989.
After knock-down of Taf7 (GeneID 40934) [DRSC15445], the record shows E2F firefly, rep 1 = 96312; Renilla normaliser, rep 1 = 5398.
